Values from PubChem BioAssay AID743454 (Peter MacCallum Cancer Centre, 2014).
This is an unselected part of about 18,000 deposited reagents. 450 of all reagents (2.5%) count as active. 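Single biological run; no consistent viability z cut-off exists, so the class columns, not z-scores, define the calls.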 Reagent sequences are not shown.

- Screen: 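Search for knock-downs that restore vorinostat killing in resistant colon cancer cells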 (primary screen)
- System: human HCT116-VR colon cancer cells, selected for vorinostat resistance
- Reagent: siRNA pool against human genes, 40 nM siRNA pool
- Duration: vorinostat for 24 h, read-out about 72 h after transfection
- Challenge: vorinostat at 2.5 µM final
- Measurement: 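Two measures, CellTiter-Fluor viability and luminescent caspase 3/7 activity, each as fold change against same-plate mock wells, mean of duplicates, then screen-wide robust z-score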
- Reading the numbers: viability robust z-score: higher = more viable cells than screen typical; caspase robust z-score: higher = more caspase 3/7 activity than screen typical
- Rule for the call: 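a knock-down is a hit when classed RV1 or RV2 for lowered viability, or CA1 or CA2 for caspase activation; those lethal without drug were dropped; hits were retested singly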

Target gene | viability hit class | caspase hit class | viability robust z-score | caspase robust z-score | activity call
PTPN21 (protein tyrosine phosphatase non-receptor type 21) | no change | no change | -0.09 | -0.25 | inactive
LINC02870 (long independently transcribed non-coding RNA 2870) | no change | no change | 1.87 | -0.84 | inactive
RBMX2 (RNA binding motif protein X-linked 2) | no change | no change | -0.61 | 0.62 | inactive
SLC25A46 | no change | no change | 0.24 | -0.89 | inactive
GRK6 (G protein-coupled receptor kinase 6) | no change | no change | -0.46 | 2.19 | inactive
PPP4R3A (protein phosphatase 4 regulatory subunit 3A) | no change | no change | 0.68 | 0.2 | inactive
TMEM81 (transmembrane protein 81) | no change | no change | -0.4 | -0.34 | inactive
NIBAN2 (niban apoptosis regulator 2) | no change | no change | 1.63 | -0.6 | inactive
HERC3 (HECT and RLD domain containing E3 ubiquitin protein ligase 3) | no change | no change | -0.83 | 0.9 | inactive
GPR148 (G protein-coupled receptor 148) | no change | no change | -1.1 | 0.04 | inactive
SLIT2 (slit guidance ligand 2) | no change | no change | 0.26 | 0.46 | inactive
CAP1 (cyclase associated actin cytoskeleton regulatory protein 1) | no change | no change | -0.12 | -0.59 | inactive
NRG1 (neuregulin 1) | no change | no change | -0.66 | 0.49 | inactive
LEFTY1 (left-right determination factor 1) | no change | no change | -0.48 | -0.72 | inactive
HNRNPUL2 (heterogeneous nuclear ribonucleoprotein U like 2) | no change | no change | 0.21 | 0.54 | inactive
APIP (APAF1 interacting protein) | no change | no change | 0.86 | -0.86 | inactive
NFYB (nuclear transcription factor Y subunit beta) | no change | no change | 0.86 | 2.8 | inactive
FBLN1 (fibulin 1) | no change | no change | 1.31 | -0.56 | inactive
DGKI (diacylglycerol kinase iota) | no change | no change | 0.83 | -0.77 | inactive
AAMDC (adipogenesis associated Mth938 domain containing) | no change | no change | -1.98 | -0.02 | inactive
CCDC117 (coiled-coil domain containing 117) | no change | no change | -1.4 | 4.06 | inactive
CD320 (CD320 molecule) | no change | no change | -0.33 | 2.35 | inactive
SPRYD3 (SPRY domain containing 3) | no change | no change | -1.06 | -0.4 | inactive
AMPH (amphiphysin) | no change | no change | 0.29 | -0.62 | inactive
STOX2 (storkhead box 2) | no change | no change | 0.21 | -0.6 | inactive
EDEM2 (ER degradation enhancing alpha-mannosidase like protein 2) | no change | no change | 0.02 | 0.11 | inactive
ARMCX1 (armadillo repeat containing X-linked 1) | no change | no change | 0.56 | 2.74 | inactive
WFS1 (wolframin ER transmembrane glycoprotein) | no change | no change | -0.45 | 0.3 | inactive
XPA (XPA, DNA damage recognition and repair factor) | no change | no change | 0.8 | -0.72 | inactive
MARCHF8 (membrane associated ring-CH-type finger 8) | no change | no change | -0.5 | 3.17 | inactive
SLC35F4 | no change | no change | -0.16 | -0.66 | inactive
PROM2 (prominin 2) | no change | no change | -0.38 | 1.59 | inactive
HRAS (HRas proto-oncogene, GTPase) | no change | no change | 0 | 0.46 | inactive
NDUFB5 (NADH:ubiquinone oxidoreductase subunit B5) | no change | no change | -0.12 | -1.04 | inactive
MRPL50 (mitochondrial ribosomal protein L50) | no change | no change | 0.42 | -0.65 | inactive
TSPAN3 (tetraspanin 3) | no change | no change | 0.82 | 0.78 | inactive
PSTPIP1 (proline-serine-threonine phosphatase interacting protein 1) | no change | no change | 1.84 | -0.04 | inactive
BRIX1 (biogenesis of ribosomes BRX1) | no change | no change | -1.79 | 0.74 | inactive

6 of these entries, reformatted.
AAMDC (adipogenesis associated Mth938 domain containing): viability hit class = no change; caspase hit class = no change; viability robust z-score = -1.98; caspase robust z-score = -0.02; activity call = inactive
CCDC117 (coiled-coil domain containing 117): viability hit class = no change; caspase hit class = no change; viability robust z-score = -1.4; caspase robust z-score = 4.06; activity call = inactive
CD320 (CD320 molecule): viability hit class = no change; caspase hit class = no change; viability robust z-score = -0.33; caspase robust z-score = 2.35; activity call = inactive
SPRYD3 (SPRY domain containing 3): viability hit class = no change; caspase hit class = no change; viability robust z-score = -1.06; caspase robust z-score = -0.4; activity call = inactive
AMPH (amphiphysin): viability hit class = no change; caspase hit class = no change; viability robust z-score = 0.29; caspase robust z-score = -0.62; activity call = inactive
STOX2 (storkhead box 2): viability hit class = no change; caspase hit class = no change; viability robust z-score = 0.21; caspase robust z-score = -0.6; activity call = inactive

Continued.
Target gene | viability hit class | caspase hit class | viability robust z-score | caspase robust z-score | activity call
SHPRH (SNF2 histone linker PHD RING helicase) | no change | no change | 0.6 | -0.3 | inactive
RHOBTB1 (Rho related BTB domain containing 1) | no change | no change | 0.23 | -0.44 | inactive
RPS8 (ribosomal protein S8) | no change | no change | -5.12 | -1.52 | inactive
SLC2A9 | no change | no change | -0.53 | -0.24 | inactive
APOF (apolipoprotein F) | no change | no change | -2.16 | 0.64 | inactive
DDX17 (DEAD-box helicase 17) | no change | no change | -0.32 | 2.33 | inactive
ATOH7 (atonal bHLH transcription factor 7) | no change | no change | -0.46 | -0.12 | inactive
SLC27A2 | no change | no change | -1.01 | 2.82 | inactive
CRYAA (crystallin alpha A) | no change | no change | 1.2 | 3.58 | inactive
NINJ1 (ninjurin 1) | no change | CA1 (caspase activation) | -0.94 | 5.64 | active
LRRC1 (leucine rich repeat containing 1) | no change | no change | -0.12 | -0.46 | inactive
TRMT11 (tRNA methyltransferase 11) | no change | no change | -0.55 | 2.09 | inactive
HBQ1 (hemoglobin subunit theta 1) | no change | no change | -0.18 | 1.98 | inactive
CT83 (cancer/testis antigen 83) | no change | no change | 1.37 | -0.02 | inactive
BRK1 (BRICK1 subunit of SCAR/WAVE actin nucleating complex) | no change | no change | -0.24 | -0.92 | inactive
CLDN10 (claudin 10) | no change | no change | 1.6 | 0.33 | inactive
AADAT (aminoadipate aminotransferase) | no change | no change | 1.09 | -0.16 | inactive
PRKCE (protein kinase C epsilon) | no change | no change | 0.28 | 1.69 | inactive
ISY1 (ISY1 spliceosome associated protein) | no change | no change | -3.87 | 0.78 | inactive
